Experimental data from patent US20250346642A1, “NEW SPLICE VARIANT ISOFORM OF VEGF” (CENTRE NATIONAL DE LA RECHERCHE SCIENTIFIQUE (CNRS), priority 2020, published 2025).
These are yes or no findings as the source states them, for the method shown. Some entries that bind do so weakly or less than the wild type.

By UniProt entry, the sequences of proteins in these tests, tags left out. Residues count along the entry.
UniProt O60462, residues 23-864: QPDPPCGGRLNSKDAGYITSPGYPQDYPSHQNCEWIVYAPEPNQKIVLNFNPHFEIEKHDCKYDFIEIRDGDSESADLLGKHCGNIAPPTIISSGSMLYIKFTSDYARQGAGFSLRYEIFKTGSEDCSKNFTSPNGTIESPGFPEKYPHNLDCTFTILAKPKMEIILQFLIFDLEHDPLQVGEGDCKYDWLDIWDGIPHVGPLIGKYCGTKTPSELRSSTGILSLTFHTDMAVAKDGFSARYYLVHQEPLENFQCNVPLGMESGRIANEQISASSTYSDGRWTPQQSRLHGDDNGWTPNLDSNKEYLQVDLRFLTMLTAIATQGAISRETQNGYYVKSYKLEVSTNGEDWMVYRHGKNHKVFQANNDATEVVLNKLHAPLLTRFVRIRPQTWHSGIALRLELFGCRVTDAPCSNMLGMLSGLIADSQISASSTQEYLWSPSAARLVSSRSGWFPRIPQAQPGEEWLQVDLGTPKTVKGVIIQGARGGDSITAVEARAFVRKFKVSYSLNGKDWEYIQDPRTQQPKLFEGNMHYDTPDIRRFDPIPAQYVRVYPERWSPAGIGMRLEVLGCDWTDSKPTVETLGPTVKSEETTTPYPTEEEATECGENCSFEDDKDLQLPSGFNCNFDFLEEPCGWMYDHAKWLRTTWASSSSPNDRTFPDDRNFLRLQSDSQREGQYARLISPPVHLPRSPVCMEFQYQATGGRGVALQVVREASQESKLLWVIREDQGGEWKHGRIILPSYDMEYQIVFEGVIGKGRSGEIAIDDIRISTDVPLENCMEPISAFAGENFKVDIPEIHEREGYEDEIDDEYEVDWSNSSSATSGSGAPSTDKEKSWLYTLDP
UniProt O14786, residues 22-644: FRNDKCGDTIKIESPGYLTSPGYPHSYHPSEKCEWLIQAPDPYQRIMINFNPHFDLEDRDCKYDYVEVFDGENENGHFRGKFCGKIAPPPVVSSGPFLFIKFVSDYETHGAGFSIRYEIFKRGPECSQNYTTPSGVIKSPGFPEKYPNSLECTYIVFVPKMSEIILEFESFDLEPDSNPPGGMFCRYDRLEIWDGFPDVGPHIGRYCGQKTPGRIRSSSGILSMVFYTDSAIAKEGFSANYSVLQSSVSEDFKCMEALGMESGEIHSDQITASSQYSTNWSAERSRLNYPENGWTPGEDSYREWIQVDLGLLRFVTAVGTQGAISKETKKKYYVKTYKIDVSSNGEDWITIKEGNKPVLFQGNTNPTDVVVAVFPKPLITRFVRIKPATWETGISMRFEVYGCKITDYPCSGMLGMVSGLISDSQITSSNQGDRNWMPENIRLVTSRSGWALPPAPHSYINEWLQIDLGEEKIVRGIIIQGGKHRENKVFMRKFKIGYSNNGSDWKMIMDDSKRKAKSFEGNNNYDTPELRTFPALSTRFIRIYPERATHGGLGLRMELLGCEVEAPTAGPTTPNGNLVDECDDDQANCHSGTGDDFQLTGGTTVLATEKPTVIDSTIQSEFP
UniProt P17948, residues 27-756: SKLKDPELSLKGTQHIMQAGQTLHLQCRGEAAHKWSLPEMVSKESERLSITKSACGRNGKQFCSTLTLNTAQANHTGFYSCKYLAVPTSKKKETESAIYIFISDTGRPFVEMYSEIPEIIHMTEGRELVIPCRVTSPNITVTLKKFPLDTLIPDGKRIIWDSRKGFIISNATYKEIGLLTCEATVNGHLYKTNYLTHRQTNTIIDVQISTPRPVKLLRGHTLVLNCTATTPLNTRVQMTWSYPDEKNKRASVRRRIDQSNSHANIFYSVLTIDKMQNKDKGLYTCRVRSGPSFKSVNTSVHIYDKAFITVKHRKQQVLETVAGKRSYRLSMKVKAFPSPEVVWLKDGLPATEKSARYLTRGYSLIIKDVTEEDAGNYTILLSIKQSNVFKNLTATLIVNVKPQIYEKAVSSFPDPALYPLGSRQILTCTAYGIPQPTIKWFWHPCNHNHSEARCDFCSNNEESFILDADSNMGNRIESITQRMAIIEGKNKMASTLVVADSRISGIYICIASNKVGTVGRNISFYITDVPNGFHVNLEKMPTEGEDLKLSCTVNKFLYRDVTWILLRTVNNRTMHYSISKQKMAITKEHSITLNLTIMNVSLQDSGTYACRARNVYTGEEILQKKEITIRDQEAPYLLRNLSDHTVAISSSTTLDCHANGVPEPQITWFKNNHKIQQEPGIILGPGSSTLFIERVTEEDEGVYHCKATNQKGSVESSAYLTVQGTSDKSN
UniProt P35968, residues 20-764: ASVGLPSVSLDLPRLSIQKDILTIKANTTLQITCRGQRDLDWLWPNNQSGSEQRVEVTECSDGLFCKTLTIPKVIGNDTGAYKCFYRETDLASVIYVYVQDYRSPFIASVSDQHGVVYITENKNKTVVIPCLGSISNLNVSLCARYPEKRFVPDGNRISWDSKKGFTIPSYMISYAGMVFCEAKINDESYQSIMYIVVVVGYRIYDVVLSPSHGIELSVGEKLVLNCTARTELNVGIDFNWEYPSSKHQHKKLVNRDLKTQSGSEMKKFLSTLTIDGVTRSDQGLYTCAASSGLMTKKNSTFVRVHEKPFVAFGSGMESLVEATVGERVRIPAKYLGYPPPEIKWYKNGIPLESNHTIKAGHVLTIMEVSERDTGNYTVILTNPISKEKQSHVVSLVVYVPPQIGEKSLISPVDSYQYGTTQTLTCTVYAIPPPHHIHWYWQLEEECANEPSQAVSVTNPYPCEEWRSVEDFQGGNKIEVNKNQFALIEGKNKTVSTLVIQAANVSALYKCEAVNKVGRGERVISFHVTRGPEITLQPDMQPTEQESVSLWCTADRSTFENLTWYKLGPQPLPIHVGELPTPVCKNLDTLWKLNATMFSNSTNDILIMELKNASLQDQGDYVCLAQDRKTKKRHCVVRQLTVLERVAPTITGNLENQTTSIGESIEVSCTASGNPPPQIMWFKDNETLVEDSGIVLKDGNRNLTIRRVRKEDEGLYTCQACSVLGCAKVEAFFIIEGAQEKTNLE

Assays:
[1] = biological target: neuropilin 2 (UniProt O60462); assay: saturation binding experiment (FIG. 5A' legend)
[2] = biological target: neuropilin 1 (UniProt O14786); assay: saturation binding experiment (FIG. 5A' legend)
[3] = biological target: T1, VEGFR1 (UniProt P17948 27-756, limits assumed); assay: saturation binding experiment (FIG. 5A legend)
T1 construct: also called VEGFR1/Flt1

[4] = biological target: T2, VEGFR2 (UniProt P35968 20-764, limits assumed); assay: saturation binding experiment (FIG. 5A legend)
T2 construct: also called VEGFR2/KDR

[5] = biological target: T3, VEGFR3 (UniProt P35916 25-776, limits assumed); assay: saturation binding experiment (FIG. 5A legend)
T3 sequence (looked up): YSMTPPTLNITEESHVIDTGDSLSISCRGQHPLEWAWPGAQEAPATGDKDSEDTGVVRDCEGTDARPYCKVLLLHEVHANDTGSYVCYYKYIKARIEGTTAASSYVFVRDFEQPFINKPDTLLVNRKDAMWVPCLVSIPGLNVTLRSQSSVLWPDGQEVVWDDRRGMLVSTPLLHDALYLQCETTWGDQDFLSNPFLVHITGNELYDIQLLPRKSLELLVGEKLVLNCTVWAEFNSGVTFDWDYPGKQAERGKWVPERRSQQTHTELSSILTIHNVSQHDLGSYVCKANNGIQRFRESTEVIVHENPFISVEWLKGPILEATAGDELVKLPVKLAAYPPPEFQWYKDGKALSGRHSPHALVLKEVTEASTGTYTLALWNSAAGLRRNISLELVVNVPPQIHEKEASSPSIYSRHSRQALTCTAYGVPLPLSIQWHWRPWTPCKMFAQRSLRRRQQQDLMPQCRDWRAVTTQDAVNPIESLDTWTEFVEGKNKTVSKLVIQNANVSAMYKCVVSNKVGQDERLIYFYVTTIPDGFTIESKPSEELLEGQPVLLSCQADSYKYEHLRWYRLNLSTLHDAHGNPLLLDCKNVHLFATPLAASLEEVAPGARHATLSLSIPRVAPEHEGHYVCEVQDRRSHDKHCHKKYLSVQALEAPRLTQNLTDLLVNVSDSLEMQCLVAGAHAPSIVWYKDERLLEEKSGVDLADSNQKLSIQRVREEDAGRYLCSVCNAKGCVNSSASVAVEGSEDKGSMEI

[6] = biological target: neuropilin 2 (UniProt O60462); assay: saturation binding experiment
[7] = biological target: neuropilin 1 (UniProt O14786); assay: saturation binding experiment

binding [1]: binds
binding [2]: binds
binding [3]: binds
binding [4]: binds
binding [5]: binds
binding [6]: binds
binding [7]: binds
B1: recombinant VEGF222/NF protein produced in HEK293 cells by ProteoGenix (ligand)
chain: GSHHHHHHSGLEVLFQGPAPMAEGGGQNHHEVVKFMDVYQRSYCHPIETLVDIFQEYPDEIEYIFKPSCVPLMRCGGCCNDEGLECVPTEESNITMQIMRIKPHQGQHIGEMSFLQHNKCECRPKKDRARQENPCGPCSERRKHLFVQDPQTCKCSCKNTDSRCKARQLELNERTCSLCFPFPSDVTSRGGEPGRRKEPPSGFREPDLSPGKTDTERSIQKPRCRHHTITIDRTVLNPET
notes: also called VEGF222 New Form; rVEGF222/NF
